Assay results published in patent publication US6696600B2, “L-DOPA ethyl ester salts and uses thereof” (priority 2001, dated 2004).
Some of these results come from one statement about several compounds together. For at least one compound, name, drawing or mass did not settle the structure.

Experiment: Exposure of hygroscopic salts to atmospheric air

Structure (SMILES)	time to transformation into liquid [min]
CC(=O)O.CCOC(=O)[C@@H](N)Cc1ccc(O)c(O)c1 [Example 2, LDEE Acetate]	3 to 5
CCOC(=O)[C@@H](N)Cc1ccc(O)c(O)c1.CS(=O)(=O)O [Example 3, LDEE Mesylate]	3 to 5
